Data on 1 molecule can be found in patent US20020177231A1.

Amino acid sequences for entries named in this document (tags omitted).
UniProt Q14289: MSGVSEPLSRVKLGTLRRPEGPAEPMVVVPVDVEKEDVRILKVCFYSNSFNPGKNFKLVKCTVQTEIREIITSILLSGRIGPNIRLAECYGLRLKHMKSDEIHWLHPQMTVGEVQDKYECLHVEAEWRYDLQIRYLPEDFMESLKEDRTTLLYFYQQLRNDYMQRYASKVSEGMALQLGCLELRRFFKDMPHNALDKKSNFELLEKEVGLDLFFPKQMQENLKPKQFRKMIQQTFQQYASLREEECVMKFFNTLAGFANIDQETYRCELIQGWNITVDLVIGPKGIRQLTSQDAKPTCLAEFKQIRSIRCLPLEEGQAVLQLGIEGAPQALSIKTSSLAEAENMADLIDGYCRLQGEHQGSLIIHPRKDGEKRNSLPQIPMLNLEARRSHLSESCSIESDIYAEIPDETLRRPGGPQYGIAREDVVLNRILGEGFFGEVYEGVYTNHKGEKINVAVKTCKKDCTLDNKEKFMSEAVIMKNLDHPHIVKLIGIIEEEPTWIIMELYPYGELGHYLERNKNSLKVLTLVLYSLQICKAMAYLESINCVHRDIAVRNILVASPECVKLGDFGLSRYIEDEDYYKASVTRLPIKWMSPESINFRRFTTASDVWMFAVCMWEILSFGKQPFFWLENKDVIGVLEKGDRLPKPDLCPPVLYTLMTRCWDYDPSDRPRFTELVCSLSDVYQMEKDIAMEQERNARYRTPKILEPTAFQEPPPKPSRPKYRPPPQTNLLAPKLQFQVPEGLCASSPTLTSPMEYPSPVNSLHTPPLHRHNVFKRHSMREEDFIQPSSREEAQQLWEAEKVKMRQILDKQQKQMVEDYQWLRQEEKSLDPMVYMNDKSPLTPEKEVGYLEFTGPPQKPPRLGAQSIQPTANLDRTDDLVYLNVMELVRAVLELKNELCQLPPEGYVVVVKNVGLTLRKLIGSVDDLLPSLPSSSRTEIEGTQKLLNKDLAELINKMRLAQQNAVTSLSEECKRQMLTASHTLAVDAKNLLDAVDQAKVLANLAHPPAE

Results are given in words; binding and its absence hold for the method and conditions named. Binding seen in cells or lysates may run through a third protein. Some entries that bind do so weakly or less than the wild type. Where a sequence is shown, tags or fusion partners need not be part of it.

The test concerns the target PYK2 (UniProt Q14289). The test is described as follows: co-immunoprecipitation from JY8 lysate (anti-PYK2; reciprocal with anti-GFP), Western blot.

B1: EGFP-leupaxin chimeric protein (protein, not shown: large carriers)
chain: MEELDALLEELERSTLQDSDEYSNPAPLPLDQHSRKETNLDETSEILSIQDNTSPLPAQLVYTTNIQELNVYSEAQEPKESPPPSKTSAAAQLDELMAHLTEMQAKVAVRADAGKKHLPDKQDHKASLDSMLGGLEQELQDLGIATVPKGHCASCQKPIAGKVIHALGQSWHPEHFVCTHCKEEIGSSPFFERSGLAYCPNDYHQLFSPRCAYCAAPILDKVLTAMNQTWHPEHFFCSHCGEVFGAEGFHEKDKKPYCRKDFLAMFSPKCGGCNRPVLENYLSAMDTVWHPECFVCGDCFTSFSTGSFFELDGRPFCELHYHHRRGTLCHGCGQPITGRCISAMGYKFHPEHFVCAFCLTQLSKGIFREQNDKTYCQPCFNKLFPL
modifications: phosphotyrosine (sites not given)
On to B1, for which the binding result is “binds”.
